Data taken from patent US7897543B2, “Spiroketal-substituted cyclic ketoenols” (Bayer CropScience AG, priority 2005, dated 2011).
Some of these results come from one statement about several compounds together. At least one compound was matched to its structure with a doubt left.

Experiments:
Type in all cases: in vivo
Phaedon cochleariae [1] = test: Example N: Phaedon Test (spray treatment); details: application rate of 100 g/ha
Method: [table] To produce a suitable preparation of active compound, 1 part by weight of active compound is mixed with the stated amounts of solvents and emulsifier, and the concentrate is diluted with emulsifier-containing water to the desired concentration. Discs of Chinese cabbage (Brassica pekinensis) are sprayed with a preparation of active compound of the desired concentration and, after drying, populated with larvae of the mustard beetle (Phaedon cochleariae).

Myzus persicae [2] = test: Example S: Myzus persicae Test (hydroponic treatment); details: concentration of 20 ppm
Tetranychus urticae [3] = test: Example J: Tetranychus Test (OP resistant/dip treatment); details: concentration of 100 ppm
Spodoptera frugiperda [4] = test: Example R: Spodoptera frugiperda Test (spray treatment); details: application rate of 500 g/ha
Setaria viridis [5] = test: Example V 2: Herbicidal Post-Emergence Action; details: post-emergence method at 320 g of a.i./ha
Method: (§1) Seeds of monocotyledonous and dicotyledonous weed and crop plants are placed into sandy loam in wood fibre pots, covered with soil and cultivated in a greenhouse under good growth conditions. 2-3 weeks after sowing, the test plants are treated at the one-leaf stage. The test compounds, formulated as wettable powders (WP), are then, in various dosages with a water application rate of 600 l/ha (converted), with 0.2% of wetting agent added, sprayed onto the green parts of the plants. After the test plants have been kept in the greenhouse under optimum growth conditions for about 3 weeks, the effect of the preparations is rated visually in comparison to untreated controls (herbicidal effect in percent (%): 100% effect=the plants have died, 0% effect=like control plants).

Lolium multiflorum = test: Example V 2: Herbicidal Post-Emergence Action; details: post-emergence method at 320 g of a.i./ha
Method: as §1

Echinocloa crus-galli = test: Example V 2: Herbicidal Post-Emergence Action; details: post-emergence method at 320 g of a.i./ha
Method: as §1

Myzus persicae [6] = test: Example Q: Myzus Test (spray treatment); details: application rate of 500 g/ha
Aphis gossypii [7] = test: Example L: Aphis gossypii Test; details: concentration of 100 ppm
Tetranychus urticae [8] = test: Example O: Tetranychus Test (OP resistant/spray treatment); details: application rate of 100 g/ha
Solium multiflorum = test: Example V 1: Herbicidal Pre-Emergence Action; details: pre-emergence method at 320 g of a.i./ha
Setaria viridis [9] = test: Example V 1: Herbicidal Pre-Emergence Action; details: pre-emergence method at 320 g of a.i./ha
Myzus persicae [10] = test: Example A: Myzus persicae Test (7:1), cabbage leaves dipped; details: concentration of 1000 ppm
Phaedon cochleariae [11] = test: Example C: Phaedon cochleariae - larvae Test (7:1), cabbage leaves dipped; details: concentration of 1000 ppm
Tetranychus urticae [12] = test: Example G: Tetranychus Test (7:1) (OP resistant/dip treatment); details: concentration of 100 ppm
Aphis gossypii [13] = test: Example B: Aphis gossypii Test (7:1), cotton leaves dipped; details: concentration of 200 ppm
Spodoptera frugiperda [14] = test: Example E: Spodoptera frugiperda Test (7:1); details: concentration of 1000 ppm
Myzus persicae [15] = test: Example I: Myzus persicae Test; details: concentration of 100 ppm

Compound: Cc1cc(C)c(C2=C(O)C3(CCC4(CC3)OC(C)CC(C)O4)NC2=O)c(C)c1 (mixture of isomers) [Ex. I-1-a-21]
- activity in % (Phaedon cochleariae [1]): ≥ 80%
- activity (kill in %) (Myzus persicae [2]): ≥ 95%
- activity in % (Tetranychus urticae [3]): ≥ 90%
- activity in % (Spodoptera frugiperda [4]): ≥ 80%
- activity (herbicidal effect in percent) (Setaria viridis [5]): ≥ 80%
- activity (herbicidal effect in percent) (Lolium multiflorum): ≥ 80%
- activity (herbicidal effect in percent) (Echinocloa crus-galli): ≥ 80%
- activity in % (Myzus persicae [6]): ≥ 90%

Compound: Cc1cc(Cl)cc(C)c1C1=C(O)C2(CCC3(CC2)OC(C)CC(C)O3)NC1=O (mixture of isomers) [Ex. I-1-a-38]
- activity (kill in %) (Aphis gossypii [7]): ≥ 80%
- activity (kill in %) (Myzus persicae [2]): ≥ 95%
- activity in % (Tetranychus urticae [8]): ≥ 80%
- activity in % (Myzus persicae [6]): ≥ 90%

Compound: COCC1COC2(CCC3(CC2)NC(=O)C(c2c(C)cc(Br)cc2C)=C3O)O1 (mixture of isomers) [Ex. I-1-a-50]
- activity (kill in %) (Aphis gossypii [7]): ≥ 80%
- activity (kill in %) (Myzus persicae [2]): ≥ 95%
- activity in % (Tetranychus urticae [8]): ≥ 80%
- activity in % (Myzus persicae [6]): ≥ 90%

Compound: Cc1cc(Br)cc(C)c1C1=C(O)C2(CCC3(CC2)OCCC(C)O3)NC1=O (mixture of isomers) [Ex. I-1-a-58]
- activity (kill in %) (Aphis gossypii [7]): ≥ 80%
- activity (kill in %) (Myzus persicae [2]): ≥ 95%
- activity in % (Tetranychus urticae [8]): ≥ 80%
- activity in % (Myzus persicae [6]): ≥ 90%

Compound: CCOC(=O)OC1=C(c2c(C)cc(C)cc2C)C(=O)NC12CCC1(CC2)OCC(C)O1 (mixture of isomers) [Ex. I-1-c-6]
- activity in % (Tetranychus urticae [8]): ≥ 80%
- activity (herbicidal effect in percent) (Setaria viridis [5]): ≥ 80%
- activity (herbicidal effect in percent) (Lolium multiflorum): ≥ 80%
- activity (herbicidal effect in percent) (Echinocloa crus-galli): ≥ 80%
- activity in % (Myzus persicae [6]): ≥ 90%

Compound: CCOC(=O)OC1=C(c2c(Br)cc(C)cc2CC)C(=O)NC12CCCC1(C2)OCC(COC)O1 (mixture of isomers) [Ex. I-1-c-43]
- activity (kill in %) (Myzus persicae [2]): ≥ 95%
- activity in % (Tetranychus urticae [8]): ≥ 80%
- activity (herbicidal effect in percent) (Solium multiflorum): ≥ 80%
- activity (herbicidal effect in percent) (Setaria viridis [5]): ≥ 80%
- activity (herbicidal effect in percent) (Lolium multiflorum): ≥ 80%
- activity (herbicidal effect in percent) (Echinocloa crus-galli): ≥ 80%
- activity (herbicidal effect in percent) (Setaria viridis [9]): ≥ 80%
- activity in % (Myzus persicae [6]): ≥ 90%

Compound: Cc1ccc(C)c(C2=C(O)C3(CCC4(CC3)OCCO4)NC2=O)c1 [Ex. I-1-a-1]
- activity (kill in %) (Myzus persicae [10]): ≥ 80%
- activity (kill in %) (Phaedon cochleariae [11]): ≥ 90%
- activity in % (Tetranychus urticae [12]): ≥ 98%

Compound: Cc1cc(C)c(C2=C(O)C3(CCC4(CC3)OCCO4)NC2=O)c(C)c1 [Ex. I-1-a-2]
- activity (kill in %) (Aphis gossypii [13]): ≥ 80%
- activity (kill in %) (Spodoptera frugiperda [14]): ≥ 85%
- activity (kill in %) (Myzus persicae [10]): ≥ 80%
- activity (kill in %) (Phaedon cochleariae [11]): ≥ 90%

Compound: Cc1cc(C)c(C2=C(O)C3(CCC4(CC3)OCCO4)NC2=O)c(C)c1C [Ex. I-1-a-3]
- activity (kill in %) (Aphis gossypii [13]): ≥ 80%
- activity (kill in %) (Spodoptera frugiperda [14]): ≥ 85%
- activity (kill in %) (Myzus persicae [10]): ≥ 80%
- activity (kill in %) (Phaedon cochleariae [11]): ≥ 90%
- activity in % (Tetranychus urticae [12]): ≥ 98%

Compound: Cc1cc(Cl)cc(C)c1C1=C(O)C2(CCC3(CC2)OCCO3)NC1=O [Ex. I-1-a-4]
- activity (kill in %) (Aphis gossypii [13]): ≥ 80%
- activity (kill in %) (Myzus persicae [10]): ≥ 80%
- activity (kill in %) (Phaedon cochleariae [11]): ≥ 90%
- activity in % (Tetranychus urticae [12]): ≥ 98%

Compound: Cc1cc(Cl)cc(Cl)c1C1=C(O)C2(CCC3(CC2)OCCCO3)NC1=O [Ex. I-1-a-11]
- activity in % (Tetranychus urticae [3]): ≥ 90%
- activity (kill in %) (Myzus persicae [15]): ≥ 80%

Compound: Cc1ccc(C)c(C2=C(O)C3(CCC4(CC3)OCCCO4)NC2=O)c1 [Ex. I-1-a-12]
- activity in % (Tetranychus urticae [3]): ≥ 90%
- activity (kill in %) (Myzus persicae [15]): ≥ 80%

Compound: Cc1cc(C)c(C2=C(O)C3(CCC4(CC3)OCCCO4)NC2=O)c(C)c1C [Ex. I-1-a-13]
- activity (kill in %) (Myzus persicae [15]): ≥ 80%

Compound: Cc1cc(Cl)cc(C)c1C1=C(O)C2(CCC3(CC2)OCCCO3)NC1=O [Ex. I-1-a-14]
- activity (kill in %) (Aphis gossypii [7]): ≥ 80%
- activity in % (Tetranychus urticae [3]): ≥ 90%
- activity (kill in %) (Myzus persicae [15]): ≥ 80%

Compound: Cc1cc(C)c(C2=C(O)C3(CCC4(CC3)OCC(C)(C)CO4)NC2=O)c(C)c1 [Ex. I-1-a-23]
- activity (kill in %) (Myzus persicae [2]): ≥ 95%
- activity in % (Tetranychus urticae [8]): ≥ 80%
- activity in % (Myzus persicae [6]): ≥ 90%

Compound: COc1cc(C)cc(C)c1C1=C(O)C2(CCC3(CC2)OCCCO3)NC1=O [Ex. I-1-a-24]
- activity (kill in %) (Myzus persicae [2]): ≥ 95%
- activity in % (Tetranychus urticae [8]): ≥ 80%
- activity (herbicidal effect in percent) (Solium multiflorum): ≥ 80%
- activity (herbicidal effect in percent) (Setaria viridis [5]): ≥ 80%
- activity (herbicidal effect in percent) (Lolium multiflorum): ≥ 80%
- activity (herbicidal effect in percent) (Echinocloa crus-galli): ≥ 80%
- activity (herbicidal effect in percent) (Setaria viridis [9]): ≥ 80%
- activity in % (Myzus persicae [6]): ≥ 90%

Compound: CCOC(=O)OC1=C(c2cc(C)c(C)cc2C)C(=O)NC12CCC1(CC2)OCCO1 [Ex. I-1-c-3]
- activity (kill in %) (Spodoptera frugiperda [14]): ≥ 85%
- activity (kill in %) (Myzus persicae [10]): ≥ 80%
- activity (kill in %) (Phaedon cochleariae [11]): ≥ 90%

Compound: CCOC(=O)OC1=C(c2c(C)cc(Cl)cc2Cl)C(=O)NC12CCC1(CC2)OCCO1 [Ex. I-1-c-4]
- activity (kill in %) (Myzus persicae [10]): ≥ 80%
- activity (kill in %) (Phaedon cochleariae [11]): ≥ 90%
- activity in % (Tetranychus urticae [12]): ≥ 98%

Compound: CCOC(=O)OC1=C(c2c(C)cc(C)c(C)c2C)C(=O)NC12CCC1(CC2)OCCO1 [Ex. I-1-c-5]
- activity (kill in %) (Phaedon cochleariae [11]): ≥ 90%

Compound: CCOC(=O)OC1=C(c2cc(C)c(C)cc2C)C(=O)NC12CCC1(CC2)OCCCO1 [Ex. I-1-c-9]
- activity in % (Phaedon cochleariae [1]): ≥ 80%
- activity in % (Tetranychus urticae [8]): ≥ 80%

Compound: CCOC(=O)OC1=C(c2c(C)cc(C)cc2C)C(=O)NC12CCC1(CC2)OCCCO1 [Ex. I-1-c-11]
- activity in % (Tetranychus urticae [8]): ≥ 80%
- activity in % (Myzus persicae [6]): ≥ 90%

Compound: CCOC(=O)OC1=C(c2cc(-c3ccc(Cl)cc3)ccc2C)C(=O)NC12CCC1(CC2)OCCO1 [Ex. I-1-c-16]
- activity in % (Tetranychus urticae [3]): ≥ 90%
- activity in % (Spodoptera frugiperda [4]): ≥ 80%
- activity in % (Myzus persicae [6]): ≥ 90%

Compound: CCOC(=O)OC1=C(c2c(C)cc(Br)cc2C)C(=O)NC12CCC1(CC2)OCCO1 [Ex. I-1-c-20]
- activity (kill in %) (Aphis gossypii [7]): ≥ 80%
- activity (kill in %) (Myzus persicae [2]): ≥ 95%
- activity in % (Tetranychus urticae [3]): ≥ 90%
- activity in % (Myzus persicae [6]): ≥ 90%

Compound: CCOC(=O)OC1=C(c2c(C)cc(C)cc2OC)C(=O)NC12CCC1(CC2)OCCO1 [Ex. I-1-c-24]
- activity (kill in %) (Myzus persicae [2]): ≥ 95%
- activity in % (Tetranychus urticae [8]): ≥ 80%
- activity in % (Myzus persicae [6]): ≥ 90%

Compound: Cc1cc(C)c(C2=C(O)C3(CCC4(CC3)OCCO4)OC2=O)c(C)c1 [Ex. I-2-a-2]
- activity (kill in %) (Spodoptera frugiperda [14]): ≥ 85%
- activity (herbicidal effect in percent) (Setaria viridis [5]): ≥ 80%
- activity (herbicidal effect in percent) (Lolium multiflorum): ≥ 80%
- activity (herbicidal effect in percent) (Echinocloa crus-galli): ≥ 80%
- activity (kill in %) (Phaedon cochleariae [11]): ≥ 90%

Compound: Cc1cc(Br)cc(C)c1C1=C(O)C2(CCC3(CC2)OCCO3)OC1=O [Ex. I-2-a-5]
- activity (kill in %) (Aphis gossypii [7]): ≥ 80%
- activity (kill in %) (Myzus persicae [15]): ≥ 80%
- activity in % (Myzus persicae [6]): ≥ 90%

Compound: Cc1cc(Cl)cc(C)c1C1=C(OC(=O)C(C)C)C2(CCC3(CC2)OCCO3)OC1=O [Ex. I-2-b-1]
- activity in % (Tetranychus urticae [8]): ≥ 80%
- activity in % (Myzus persicae [6]): ≥ 90%

Compound: Cc1cc(C)c(C2=C(OC(=O)C(C)(C)C)C3(CCC4(CC3)OCCO4)OC2=O)c(C)c1 [Ex. I-2-b-2]
- activity (kill in %) (Spodoptera frugiperda [14]): ≥ 85%
- activity (kill in %) (Phaedon cochleariae [11]): ≥ 90%
